Source: ChEMBL document CHEMBL3988442, “University of Dundee, Small-Polar-MMV Screening Library” (2021).

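Assay on Mycobacterium tuberculosis, filed only as a heat shock assay from Cornell; the read-out is not stated. The concentration is filed as 10 mM, unlikely as a test dose, so the dose is not known. Higher reads as stronger inhibition (inferred: compounds with an IC50 in retests scored well above the rest). Size under these conditions: about 69,000 compounds, about 930 of them at 50% or above in at least one test.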

Each number is a percent effect as filed. How 0% and 100% were set is not recorded. Most values in the screen are low, and negative values occur. The compounds are a random part of those screened.

compound | Percent Effect
CC[C@H]1NCCC[C@]12CCC(=O)N2Cc1ccncc1 | -20.2%
Cc1noc(CN(CCc2ccco2)Cc2cccc(C#N)c2)n1 | -11.47%
CC(=O)c1cccc(NC(=O)CCn2nc(-c3cccs3)oc2=O)c1 | 9.877%
CC(=O)c1c(F)cccc1NCC(O)C1CC1 (stereo not drawn) | -17.46%
CC(C)N1CCC2(CC1)CC(=O)N(Cc1cc(F)cc(F)c1)C2 | 25.93%
Cc1ccccc1OC1CCN(C(=O)c2c[nH]c(=O)[nH]c2=O)CC1 | -9.796%
CCN(CC)S(=O)(=O)c1ccc2c(c1)N(Cc1ccncc1)C(=O)CS2 | -25.04%
O=C(CN1CCCC1Cn1cncn1)Nc1nccs1 (stereo not drawn) | 4.576%
NC(=O)c1cnc(NCC(=O)NCc2ccccc2)c(Cl)c1 | -10.39%
c1csc(-c2nc(CNC3CCc4ncnn4C3)co2)c1 (stereo not drawn) | -7.318%
COCC(=O)N1CCC2(COCc3cnc(NCc4ccco4)nc32)C1 (stereo not drawn) | -38.34%
COc1ccc2c(c1)c(-c1nc(N(C)C)ncc1CN)cn2C | 26.07%
CN1CCN(Cc2ccccc2CNC(=O)c2cc(Br)ccc2F)CC1 | -18.73%
[H][C@@]12CN(CC(C)C)C[C@]1([H])OCC(=O)N2c1ccccc1 | -11.15%
COc1ccc(C2=C(C)C(N3CCc4ccccc43)=NS2(=O)=O)cc1 | -8.488%
O=C(NC1CC1)N1CCn2c(Cn3cccn3)cnc2C1.O=C(O)C(F)(F)F | 0.8359%
O=C(CNC(=O)N1CCc2c([nH]c3ccc(Cl)cc23)C1)NCCCO | -7.705%
O=C(O)C(F)(F)F.c1nc2c(c(-c3ccsc3)n1)CCN(Cc1ccoc1)CC2 | -8.03%
Cc1ccc(C(CNC(=O)NCc2ccccn2)N2CCOCC2)o1 (stereo not drawn) | 12.67%
CC(C)=CCC1(CO)CCCN(Cc2nccs2)C1 (stereo not drawn) | 14.04%
CCN(Cc1cnn(C)c1)C[C@H]1CC[C@@H](Cc2cccc(C#N)c2)O1 | -21.42%
CCOC(=O)NC(C(=O)NCc1ccc(N2CCCCC2)nc1)C(C)C (stereo not drawn) | -11.82%
c1csc(-c2cc(CN3CCN(c4cnccn4)CC3)no2)c1 | -14.16%
CCN(Cc1nc2c(cnn2C)c(=O)[nH]1)c1cccc(F)c1 | 24.66%
CC(=O)NCCn1ccc(-c2ccccn2)n1 | -24.69%
CN1CCN(Cc2ccccc2Oc2nccc3occc23)CC1 | -0.3902%
CC(C)(O)CCc1cccc(C(=O)N2CCC[C@H]2C(N)=O)c1 | -12.65%
CCOc1cc(Cl)ccc1CNC(=O)N(C)CC(C)(C)O | -23.86%
O=C(c1ccc(Br)o1)N1CCN(Cc2ccc(OC(F)(F)F)cc2)CC1 | -5.856%
O=C(NCCc1c[nH]c2ccccc12)C1CCC(Cn2cnnn2)CC1 (stereo not drawn) | 2.28%
Cc1cc(N[C@H](CO)c2ccccc2)n2nc(C)cc2n1 | 0.7812%
COC(=O)[C@H](C)NC(=O)Cn1ccc2ccc(F)cc21 | 18%
Cc1cc(C(=O)NCC(C)N2CCc3ccccc32)on1 (stereo not drawn) | -3.221%
N#Cc1cn(CC(=O)NC2CC2)c2ccc(Br)cc2c1=O | -0.5731%
CN(Cc1ccco1)C(=O)Nc1ccc(=O)n(C)c1 | 5%
CNC(=O)C1(N2CCC[C@H]2C(=O)NC2CC2)CCCCC1.Cl | -5.682%
CC(=O)N1CCC(N2CCOC[C@H]2c2nc(-c3ccc(Cl)s3)c[nH]2)CC1 | -28.27%
C[C@@H]1CN(S(=O)(=O)N2CCCC2)CC[C@@]1(O)C1CCOCC1 | -150.4%
CC(C)COCc1cncc2c1CCN(C(=O)c1cscn1)C2.O=C(O)C(F)(F)F | 37.15%
CC1CCC(NC(=O)Nc2ccc(CC(=O)N(C)C)cc2)CC1 (stereo not drawn) | 8.088%
O=C(Cn1cnc2sccc2c1=O)NCCCc1nnc2ccccn12 | -11.81%
CC(O)Cc1cn(CC2CCN(c3nccc4occc34)CC2)nn1 (stereo not drawn) | -5.276%
Cc1nc(C)n(CC2CN(Cc3cccc4ccccc34)CCO2)n1 (stereo not drawn) | -19.76%
CCOCCC(=O)NCc1ccnc(NC2CC2)c1 | -23.31%
Cc1cccc(-c2nc(CN3CCCCC3Cn3cncn3)no2)c1 (stereo not drawn) | 6.868%
c1cc2c(cc1CN(Cc1nc(C3CC3)no1)C1CCCC1)OCO2 | -1.402%
CCCc1n[nH]c(C2CN(C(=O)Cc3ccc(C)nc3)CCO2)n1 (stereo not drawn) | 4.521%
O=C1CCN(C(=O)NCc2ccccc2Oc2ccccc2)CCN1 | -29.44%
[H][C@]12CCN(c3nc(CO)cs3)C[C@]1(COC)CC[C@@H](N1CCOCC1)C2 | 20.71%
CCS(=O)(=O)NC(CCSC)C(=O)Nc1cccc(C)c1C (stereo not drawn) | -4.918%
CC(C)Oc1ccc(CSc2nnc(CN3CCCC3=O)o2)cc1 | 33.87%
CCc1ccccc1NC(=O)C1CN(C(C)=O)C1 | -7.323%
CC(NC(=O)NCC1(c2ccc(F)cc2)CCCC1)c1nncn1C (stereo not drawn) | -3.812%
Cc1cc(S(=O)(=O)N2CCCc3ccc(F)cc32)sc1C(=O)O | -8.596%
CC(c1ccncc1)N(CCN(C)C)C(=O)Nc1ccc(Cl)cc1 (stereo not drawn) | -14.12%
Cc1ccc(CNC(=O)CN2CCN(CC(O)c3ccco3)CC2)cc1.Cl.Cl (stereo not drawn) | 2.854%
CN1CCc2c(C#N)c(NCc3ccncc3)n3cnnc3c2C1 | -27.94%
O=C(NCCn1ccnc1)N1CCCC1c1ccncc1 (stereo not drawn) | 13.91%
CC(C)c1nnc2n1CCN(CCS(=O)(=O)c1ccccc1)C2 | -8.217%
CCc1cc(CNC(=O)Nc2cc(F)cc(N3CCCC3)c2)on1 | 18.84%
CCc1cnc(CNc2ccc(C(=O)N3CCCC(C)C3)cc2C)o1 (stereo not drawn) | -0.7074%
Cc1nc(C(=O)Nc2cc(N3CCNC3=O)ccc2Cl)cs1 | -5.382%
O=C(O)C(F)(F)F.O=C(O)C(F)(F)F.[H][C@@]12COC[C@H](C(=O)Nc3cccnc3)[C@]1([H])CN(Cc1cnn(C)c1)C2 | -17.46%
Cc1nc2n(n1)CC(NCCC(=O)Nc1cc(C)on1)CC2 (stereo not drawn) | -8.561%
CCCc1cc(NC2CCc3nc(C)nn3C2)n2ncnc2n1 (stereo not drawn) | -27.92%
CC(C)COC(C)C(=O)N1CCC(C)CC1 (stereo not drawn) | 6.239%
O=C(O)C(F)(F)F.O=C(O)C(F)(F)F.[H][C@@]12CN(Cc3ccc(C)s3)C[C@@]1([H])N(Cc1ccncc1)C(=O)CO2 | -16.27%
COc1ccc(C(=O)NS(=O)(=O)c2cncc(Br)c2)cc1 | -12.69%
Cl.Cl.OC(CN1CCN(Cc2cc(F)ccc2F)CC1)C1CC1 (stereo not drawn) | -17.67%
CCN(CC)S(=O)(=O)CCNc1ncnc2cc(F)c(F)cc12 | -6.393%
CC(C)CCC(C)NC(=O)CN1C=Nc2ccccc2S1(=O)=O (stereo not drawn) | -7.217%

7 of the entries, repeated:

| compound | Percent Effect |
|---|---|
| `O=C(Cn1cnc2sccc2c1=O)NCCCc1nnc2ccccn12` | -11.81% |
| `Cc1ccc(C(CNC(=O)NCc2ccccn2)N2CCOCC2)o1` (stereo not drawn) | 12.67% |
| `N#Cc1cn(CC(=O)NC2CC2)c2ccc(Br)cc2c1=O` | -0.5731% |
| `Cc1noc(CN(CCc2ccco2)Cc2cccc(C#N)c2)n1` | -11.47% |
| `CC(C)=CCC1(CO)CCCN(Cc2nccs2)C1` (stereo not drawn) | 14.04% |
| `CC(C)Oc1ccc(CSc2nnc(CN3CCCC3=O)o2)cc1` | 33.87% |
| `CCCc1n[nH]c(C2CN(C(=O)Cc3ccc(C)nc3)CCO2)n1` (stereo not drawn) | 4.521% |